The record followed here is the odorant receptor screen of Mainland et al. (2015).

Some test systems named below: OR5T2 clone 1313; OR5T2 clone 1428; OR5T3 clone 1343; OR5V1 clone 1070; OR6A2 clone 1489; OR6B1 R143C clone 1181; OR6B2 R122C clone 1444; OR6B3 R261W clone 1445; OR6C2 clone 1413; OR6C3 clone 1424; OR6C4 I37V clone 1412; OR6C6 clone 1426; OR6C65 clone 1459; OR6C68 A45T clone 1451; OR6C70 clone 1427; OR6C74 clone 1441; OR6C75 clone 1519; OR6C76 clone 1414; OR6F1 clone 1039.

What all share (assay): odorant receptor activation (CRE luciferase / Renilla) (fold of no-odor wells); higher = more activation
What all share (conditions): 100 µM

The subject of test [1] is OR6C1 V74I/C130Y/L161F/H165D/V246I/R291K clone 1442.

Values joined by “and” are separate entries in the source; they are usually repeats but may differ in a detail not shown here. Equal values may be shown once. Some of the results follow. Each value is one well over the wells without odorant, computed here; the data are noisy.

`CCCCCCCOC(C)=O` [heptyl acetate]: the odorant receptor activation with OR5T2 clone 1313 is 1.15 and 0.699; in the test on OR5T2 clone 1428, 1.02; in the test on OR5T3 clone 1343, 1.31 and 1.09; with OR5V1 clone 1070, 0.646; in the test on OR6A2 clone 1489, 0.967 and 1.42; in the test on OR6B1 R143C clone 1181 it was 0.973. The odorant receptor activation amounted to 0.851 in the test with OR6B2 R122C clone 1444; 1.1 in the test with OR6B3 R261W clone 1445; 1.12 in [1]; 0.919 with OR6C2 clone 1413; 1.09 in the test with OR6C3 clone 1424; 0.86 in the test on OR6C4 I37V clone 1412. Further, the odorant receptor activation in the test on OR6C6 clone 1426 is 0.988; in the test on OR6C65 clone 1459, 0.773 and 1.31; in the test on OR6C68 A45T clone 1451 it was 0.874; with OR6C70 clone 1427 it was 0.861; in the test on OR6C74 clone 1441, 0.896; with OR6C75 clone 1519, 1.14 and 0.967. Further, the odorant receptor activation with OR6C76 clone 1414 came to 0.853; with OR6F1 clone 1039, 1.12.
Take `CC(=O)OC(C)(C)C1CC=C(C)CC1` (stereo not given) [terpinyl acetate]: the odorant receptor activation with OR5T2 clone 1313 was 0.884; in the test with OR5T2 clone 1428, 0.892; with OR5T3 clone 1343, 1.06; with OR5V1 clone 1070 it was 1.47; with OR6A2 clone 1489, 1.13; with OR6B1 R143C clone 1181, 1.54. In addition, the odorant receptor activation with OR6B2 R122C clone 1444 is 0.914; in the test on OR6B3 R261W clone 1445, 0.95; in test [1], 0.961; in the test with OR6C2 clone 1413, 1.03; in the test with OR6C3 clone 1424, 1.01; with OR6C4 I37V clone 1412, 0.923. The odorant receptor activation in the test on OR6C6 clone 1426 came out at 0.902; with OR6C65 clone 1459, 0.973; with OR6C68 A45T clone 1451, 0.938; in the test on OR6C70 clone 1427 it was 1.09; with OR6C74 clone 1441, 1.01; in the test on OR6C75 clone 1519, 1.02. Also, the odorant receptor activation came out at 0.896 with OR6C76 clone 1414 and 1.61 with OR6F1 clone 1039.
In the case of `CC/C=C\CCO` [cis-3-hexen-1-ol], the odorant receptor activation in the test on OR5T2 clone 1313 turned out to be 1.09; in the test on OR5T2 clone 1428, 0.248; in the test with OR5T3 clone 1343, 0.815; in the test with OR5V1 clone 1070, 1.14; with OR6A2 clone 1489, 0.905; with OR6B1 R143C clone 1181 it was 1.12. The odorant receptor activation worked out at 0.265 in the test on OR6B2 R122C clone 1444; 0.37 with OR6B3 R261W clone 1445; 0.145 in test [1]; 0.241 with OR6C2 clone 1413; 0.169 in the test with OR6C3 clone 1424; 0.244 with OR6C4 I37V clone 1412. In addition, the odorant receptor activation with OR6C6 clone 1426 was 0.203; in the test with OR6C65 clone 1459 it was 1.11; with OR6C68 A45T clone 1451, 0.93; with OR6C70 clone 1427, 0.225; in the test with OR6C74 clone 1441, 0.155; in the test with OR6C75 clone 1519, 0.99. Besides, the odorant receptor activation in the test on OR6C76 clone 1414 is 0.15; in the test with OR6F1 clone 1039 it was 0.856.
Take `CC12CCC(CC1)C(C)(C)O2` [cineole]: the odorant receptor activation came out at 1.11 with OR5T2 clone 1313; 0.188 in the test on OR5T2 clone 1428; 0.924 in the test with OR5T3 clone 1343; 0.945 in the test on OR5V1 clone 1070; 0.9 in the test with OR6A2 clone 1489; 0.902 in the test on OR6B1 R143C clone 1181. Further, the odorant receptor activation was found to be 0.27 with OR6B2 R122C clone 1444; 0.341 with OR6B3 R261W clone 1445; 0.128 in test [1]; 0.201 in the test with OR6C2 clone 1413; 0.114 with OR6C3 clone 1424; 0.207 in the test with OR6C4 I37V clone 1412. For the same compound, the odorant receptor activation turned out to be 0.193 in the test with OR6C6 clone 1426; 0.884 in the test on OR6C65 clone 1459; 1.07 with OR6C68 A45T clone 1451; 0.235 in the test with OR6C70 clone 1427; 0.138 with OR6C74 clone 1441; 0.955 with OR6C75 clone 1519. The odorant receptor activation in the test on OR6C76 clone 1414 was 0.157; in the test with OR6F1 clone 1039, 0.771.
Turning to `COc1cc(C=O)ccc1O` [vanillin], the odorant receptor activation is 1.05 in the test on OR5T2 clone 1313; 0.984 with OR5T2 clone 1428; 1.19 in the test with OR5T3 clone 1343; 0.915 in the test with OR5V1 clone 1070; 1.01 in the test with OR6A2 clone 1489; 1.18 in the test with OR6B1 R143C clone 1181. The odorant receptor activation amounted to 1.14 in the test on OR6B2 R122C clone 1444; 0.958 in the test on OR6B3 R261W clone 1445; 1.02 in test [1]; 1.06 in the test with OR6C2 clone 1413; 0.789 in the test with OR6C3 clone 1424; 0.852 in the test on OR6C4 I37V clone 1412. Besides, the odorant receptor activation with OR6C6 clone 1426 was 0.89; in the test on OR6C65 clone 1459, 0.975; with OR6C68 A45T clone 1451, 0.902; in the test on OR6C70 clone 1427 it was 0.988; in the test with OR6C74 clone 1441, 0.936; with OR6C75 clone 1519 it was 0.95. Besides, the odorant receptor activation in the test on OR6C76 clone 1414 stood at 1.08; in the test on OR6F1 clone 1039, 1.19.
Consider `COc1cc(C)ccc1O` [2-methoxy-4-methylphenol], for which the odorant receptor activation stood at 0.952 in the test with OR5T2 clone 1313; 1.04 in the test on OR5T2 clone 1428; 1.16 in the test on OR5T3 clone 1343; 1.59 with OR5V1 clone 1070; 0.877 with OR6A2 clone 1489; 1.04 in the test on OR6B1 R143C clone 1181. For the same compound, the odorant receptor activation worked out at 1.21 in the test on OR6B2 R122C clone 1444; 0.573 in the test on OR6B3 R261W clone 1445; 1.42 in [1]; 0.952 with OR6C2 clone 1413; 1.05 in the test with OR6C3 clone 1424; 1.08 in the test on OR6C4 I37V clone 1412. Also, the odorant receptor activation was 1.05 with OR6C6 clone 1426; 0.755 in the test with OR6C65 clone 1459; 0.663 with OR6C68 A45T clone 1451; 1.22 with OR6C70 clone 1427; 1.65 with OR6C74 clone 1441; 0.929 with OR6C75 clone 1519. The results for the odorant receptor activation in the test on OR6C76 clone 1414 and in the test on OR6F1 clone 1039 were 0.87 and 1.51, respectively.
`CC(C)C=O` [isobutyraldehyde]: the odorant receptor activation in the test on OR5T2 clone 1313 is 1.07 and 0.742; with OR5T2 clone 1428 it was 0.966; in the test with OR5T3 clone 1343, 1.39 and 0.898; with OR5V1 clone 1070 it was 0.676; in the test on OR6A2 clone 1489 it was 0.98 and 1.14; in the test with OR6B1 R143C clone 1181, 0.779. Besides, the odorant receptor activation stood at 0.752 with OR6B2 R122C clone 1444; 0.99 in the test with OR6B3 R261W clone 1445; 1.04 in test [1]; 0.849 with OR6C2 clone 1413; 0.887 with OR6C3 clone 1424; 0.781 in the test with OR6C4 I37V clone 1412. Also, the odorant receptor activation in the test with OR6C6 clone 1426 was 1.1; in the test with OR6C65 clone 1459, 1.11 and 0.965; with OR6C68 A45T clone 1451, 0.855; in the test on OR6C70 clone 1427 it was 0.882; in the test with OR6C74 clone 1441 it was 0.835; in the test on OR6C75 clone 1519 it was 1.22 and 1.13. Besides, the odorant receptor activation worked out at 0.812 with OR6C76 clone 1414 and 1.07 with OR6F1 clone 1039.
